Test results from PubChem BioAssay AID190 (DTP/NCI, 2004).
The list shows only some results of the screen, not a fair sample: its compounds were picked by chemical class. Not every dose and run of a compound is shown. T/C is the treated group as % of the vehicle group. Some entries give survivors of the animals treated and no T/C: the source files T/C as zero there, which appears to mark a toxic dose or a test without result, not a measured value. Survivors were counted at the toxicity check, usually on the fifth day, unless a day is given; later deaths do not show. Schedules are NCI's codes, taken here to give the interval after Q, in days (D) or hours (H), and the number of doses after X. For survival time, the PubChem record calls one and a half times the control and up active, and a quarter to a half above the control has no call in these data; cut-offs in other NCI protocols can differ. Some T/C values are followed by the survivors on the day toxicity was checked, most often the fifth; without a count or a note in brackets, all were alive then.

Test system: AKR/Lw mice, AKR lymphoma ip, median survival T/C
Assay: NCI In Vivo Anticancer Drug Screen. Data for tumor model Lymphoma AKR (Transplanted) (intraperitoneal) in AKR/Lw mice
Settings: T/C endpoint: median survival time, schedule: Q01DX001 (ip), vehicle: saline, higher T/C = longer survival
Protocol: The antitumor activity of compounds was measured in mice bearing transplantable tumors. Survival or tumor size were measured and the results are expressed as the measurement made in the treated group (T) divided by the measurement made in the vehicle treated control group (C). The tumor model used in this assay is Lymphoma AKR (Transplanted) (intraperitoneal) in AKR/Lw mice

Compound	T/C (dose: 50.0 mg/kg/injection)	survivor count (dose: 100.0 mg/kg/injection)	survivor count (dose: 200.0 mg/kg/injection)	T/C (dose: 0.75 mg/kg/injection)	T/C (dose: 1.5 mg/kg/injection)	T/C (dose: 3.0 mg/kg/injection)	T/C (dose: 12.5 mg/kg/injection)	T/C (dose: 25.0 mg/kg/injection)
C[N+]1(Cc2ccccc2)CC12CCCCC2 (centres undefined)	88 % of control [8 of 10 alive]	1 of 10	0 of 10	–	–	–	–	–
CN(C)P(=O)(N(C)C)n1c(Nc2ccccc2)nnc1-c1ccccc1	–	–	–	94 % of control	100 % of control	97 % of control	–	–
CC1(Cc2ccccc2)C[N+]12CCCCC2 (centres undefined)	94 % of control	–	–	–	–	–	100 % of control	100 % of control
